This series in a line: general procedure: Fmoc solid-phase peptide synthesis; Protide Rink-amide resin (CEM, 100-200 Mesh; loading 0.2 mmol/g); DIC/Oxyma. To be noted: whole synthesis, scale of the general procedure 0.2 mmol, TFA salt.

For the substance hCYKSTVIVNNKEKTTAEYhC-(Ttds)4-K(N3)-NH2, the crude yield entry was “Y=65%” and the isolated yield result is given as “Y=28%”.

For the substance “YKSTVIVNNKEKTTAE-PEG4-K(N3)-CONH2 (PEG4-K(N3) C-terminus, amide; BINDING 16 PEG4-K(N3))”, the crude yield result is listed as “Y=70%” and the isolated yield entry is recorded as “Y=25%”.

Take “SHQMLFYKDDVLFYNISSS-GGSGGSGG-K(N3)-CONH2 (GGSGGSGG-K(N3), C-terminal amide; BINDING 19 GGSGGSGG-K(N3))”: the crude yield entry is “Y=66%” and the isolated yield result was “Y=4%”.

As for “Ac-c*HQMLFYKDDVLFYNISSC*-GGSGGSGG-K(N3)-CONH2”, the crude yield entry is reported as “Y=64%” and the isolated yield result is reported as “Y=5%”.

Regarding “K(N3)-PEG4-PRVTLDKKEAIQGGIVRVNSSVPEEK-CONH2 (Ac-K(N3)-PEG4 N-terminus, C-terminal amide; BINDING 1 Ac-K(N3)-PEG4-)”, the crude yield result was “Y=54%” and the isolated yield entry is given as “Y=35%”.

As to “hCHQMLFYKDDVLFYNISShCK-Ttds-Ttds-Ttds-Ttds-K(N3)-CONH2”, the crude yield result is listed as “Y=70%” and the isolated yield result is given as “Y=10%”.

For “Ac-KKKc*HQMLFYKDDVLFYNISSC*-Ttds-Ttds-K(N3)-CONH2”, the crude yield entry is “Y=61%” and the isolated yield entry is on record as “Y=2%”.

In the case of “Ac-K(N3)-(Ttds)4-PRhCTLDKKEAIQGGIVRVNhCSVPEEK-CONH2”, the crude yield entry was “Y=73%”.

(Values after patent US20250281679A1 (INSERM (Institut National de la Santé et de la Recherche …, priority 2021, published 2025).)
